Experimental data reported in the supplement of paper PMC5662767.
Structures can show the parent of a compound that is named as a salt. The list shows a part of the results. Baselines shift from plate to plate; read single values as rough.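 Smoothened with circularly permuted GFP in its cytoplasmic tail is carried by a clonal Drosophila S2 line; fluorescence appears when Hh-driven phosphorylation opens an inhibitory loop. Per-cell signal, read by flow cytometry, was scaled to Hh-stimulated untreated cells. Hits were consistent fluorescence-shifting groups of inhibitors sharing pathway targets, not single compounds.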

Tested on: Drosophila S2 cl14 SmoIP sensor cells
Assay: normalized SmoIP GFP fluorescence (untreated unstimulated = 0%, untreated Hh-stimulated = 100%); higher = more Smo activation sensor fluorescence
Details: compound concentration: 15 uM, 24 h
[1] = stimulation: Hh conditioned medium (+Hh)
[2] = stimulation: mock conditioned medium (-Hh)

| SMILES | normalized SmoIP GFP fluorescence [1] [%] | normalized SmoIP GFP fluorescence [2] [%] |
| --- | --- | --- |
| O=C(Nc1cccc2cccnc12)c1ccc(N2C(=O)[C@@H]3[C@H](C2=O)[C@@H]2C=C[C@H]3C2)cc1 [iwr-1-endo] | 114 | 5.47 |
| C[C@]1(c2nc3c(C(N)=O)cccc3[nH]2)CCCN1 | 135 | 9.32 |
| Cn1nnc2c(C(N)=O)ncn2c1=O [Methazolastone] | 122 | -1.34 |
| C[S+]([O-])c1ccc(-c2nc(-c3ccc(F)cc3)c(-c3ccncc3)[nH]2)cc1 (stereo not drawn) | 183 | 49.2 |
| O=C(C[S+]([O-])Cc1ccco1)NC/C=C\COc1cc(CN2CCCCC2)ccn1 (stereo not drawn) [lafutidine] | 141 | 6.1 |
| CC(C)C[C@H](NC(=O)CNC(=O)c1cc(Cl)ccc1Cl)B1OC(=O)C(CC(=O)O)(CC(=O)O)O1 | 104 | 41.6 |
| C[C@@]1(c2cc(-c3cncnc3)c(F)cc2F)CCSC(N)=N1 | 142 | 24.1 |
| Cc1cccc(Nc2cc(Cl)nc(SCC(=O)O)n2)c1C | 157 | 94.6 |
| CO[C@H]1C[C@@H]2CC[C@@H](C)[C@@](O)(O2)C(=O)C(=O)N2CCCC[C@H]2C(=O)O[C@H]([C@H](C)C[C@@H]2CC[C@@H](O)[C@H](OC)C2)CC(=O)[C@H](C)/C=C(\C)[C@@H](O)[C@@H](OC)C(=O)[C@H](C)C[C@H](C)/C=C/C=C/C=C/1C [Rapamycin] | 94.3 | 38.5 |
| C=CC(=O)Nc1ccc2ncnc(Nc3ccc(OCc4cccc(F)c4)c(Cl)c3)c2c1 | 139 | 5.65 |
| CCOC(=O)c1ccc(NC2CCCCC2)c(N)c1 [ferrostatin-1-fer-1] | 134 | 16.7 |
| C=CC[N+]1([C@H]2C[C@H]3[C@@H]4CC[C@H]5C[C@H](O)[C@@H](N6CCOCC6)C[C@]5(C)[C@H]4CC[C@]3(C)[C@H]2OC(C)=O)CCCC1 [Rocuronium-bromide] | 123 | 4.26 |
| C[C@H]1COC2=C1C(=O)C(=O)c1c2ccc2c1CCCC2(C)C [Cryptotanshinone] | 138 | 7.19 |
| CC(C)C(=O)Oc1ccc(CO)cc1[C@H](CCN(C(C)C)C(C)C)c1ccccc1 [Fesoterodine-fumarate-Toviaz] | 131 | -7.78 |
| CCOC(=O)[C@H](CCc1ccccc1)N[C@@H](C)C(=O)N1[C@@H](C(=O)O)C[C@@H]2CCC[C@@H]21 [Ramipril(Altace)] | 123 | -17.5 |
| CCOc1cc2ncc(C#N)c(Nc3ccc(OCc4ccccn4)c(Cl)c3)c2cc1NC(=O)/C=C/CN(C)C [Neratinib(HKI-272)] | 49.7 | -23.6 |
| CO[C@H]1C[C@@H]2CC[C@@H](C)[C@@](O)(O2)C(=O)C(=O)N2CCCC[C@H]2C(=O)O[C@H]([C@H](C)C[C@@H]2CC[C@@H](OC(=O)C(C)(CO)CO)[C@H](OC)C2)CC(=O)[C@H](C)/C=C(\C)[C@@H](O)[C@@H](OC)C(=O)[C@H](C)C[C@H](C)/C=C/C=C/C=C/1C [Temsirolimus] | 94.3 | 72.7 |

| SMILES | normalized SmoIP GFP fluorescence [1] [%] | normalized SmoIP GFP fluorescence [2] [%] |
| --- | --- | --- |
| O=C(Cc1ccc(-c2ccc(OCCN3CCOCC3)cc2)cn1)NCc1ccccc1 | 112 | 15.4 |
| C[C@H]1[C@H](C)CC[C@]2(C(=O)O)CC[C@]3(C)C(=CC[C@@H]4[C@@]5(C)C[C@@H](O)[C@H](O)[C@@](C)(CO)[C@@H]5CC[C@]43C)[C@H]12 [Asiatic-acid] | 137 | -2.19 |
| CCCC(CCC)C(=O)O [Divalproex-sodium] | 131 | -18.7 |
| NS(=O)(=O)c1ccc(NC(=O)Nc2ccc(F)cc2)cc1 | 112 | 2.63 |
| CC(=O)OCC[N+](C)(C)C [Acetylcholine-chloride] | 129 | -13.9 |
| Cc1ccc(C(=O)N(CCCN)[C@@H](c2oc3cc(Cl)ccc3c(=O)c2Cc2ccccc2)C(C)C)cc1 | 220 | 93 |
| Fc1ccc(C(c2ccc(F)cc2)N2CCN(C/C=C/c3ccccc3)CC2)cc1 [flunarizine-dihydrochloride] | 205 | 54.6 |
| COc1ccc([C@@H]2CC(=O)c3c(O)cc(O)cc3O2)cc1O [Hesperetin] | 116 | -15.8 |
| CC(C(=O)O)c1ccc2c(c1)CC(=O)c1ccccc1S2 (stereo not drawn) [zaltoprofen] | 123 | 1.44 |
| O=C(O)Cc1cccc(OCCCN(Cc2cccc(C(F)(F)F)c2Cl)CC(c2ccccc2)c2ccccc2)c1 | 126 | 75.7 |
| C#C[C@]1(OC(C)=O)CC[C@H]2[C@@H]3CCC4=C[C@@H](OC(C)=O)CC[C@@H]4[C@H]3CC[C@@]21C [ethynodiol-diacetate] | 110 | 0.815 |
| Cc1cccc(CC(=O)N2CCc3c2ccc(-c2cn(C)c4ncnc(N)c24)c3F)n1 | 109 | 4.68 |
| CCOC(=O)C1=C(C)NC(C)=C(C(=O)OC)C1c1cccc([N+](=O)[O-])c1 (stereo not drawn) [Nitrendipine] | 147 | -12.9 |
| CN(C)CCN(Cc1ccccc1)c1ccccn1 [tripelennamine-hydrochloride] | 124 | -0.264 |
| CC1(C)CCC(c2ccc(Cl)cc2)=C(CN2CCN(c3ccc(C(=O)NS(=O)(=O)c4ccc(N[C@H](CCN5CCOCC5)CSc5ccccc5)c(S(=O)(=O)C(F)(F)F)c4)cc3)CC2)C1 | 101 | 1.89 |
| CCc1c2c(nc3ccc(O)cc13)-c1cc3c(c(=O)n1C2)COC(=O)[C@]3(O)CC | 58.4 | 10.9 |
| Cc1cccc(-c2[nH]c(C(C)(C)C)nc2-c2ccc3c(c2)OCO3)n1 | 136 | -4.08 |

A run of entries taken from the entries so far, as a working copy:

| SMILES | normalized SmoIP GFP fluorescence [1] [%] | normalized SmoIP GFP fluorescence [2] [%] |
| --- | --- | --- |
| Cc1ccc(C(=O)N(CCCN)[C@@H](c2oc3cc(Cl)ccc3c(=O)c2Cc2ccccc2)C(C)C)cc1 | 220 | 93 |
| Fc1ccc(C(c2ccc(F)cc2)N2CCN(C/C=C/c3ccccc3)CC2)cc1 [flunarizine-dihydrochloride] | 205 | 54.6 |
